Values from PubChem BioAssay AID1259405 (NCATS, 2018).
Purpose: 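Knock-downs that lift recombinant protein yield in hamster ovary cells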 (primary screen). Cells: Chinese hamster CHO-K1 ovary cells with stable secreted eGFP expression. Reagent: single siRNA against mouse genes, 0.8 pmol siRNA per well (2 µl of 400 nM stock). Time to read-out: 3 days. Measured: 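Per-well intracellular GFP measured by laser scanning cytometry, plus viability from ATP luminescence, each relative to plate median of non-targeting control wells, in %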. Reading the numbers: GFP, % of control: higher = more GFP per well, higher productivity; viability (ATP), % of control: higher = more viable cells (more ATP). Rule for the call: 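Called active when intracellular GFP, relative to negative control, is at or above 120%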.
In all, the deposit lists about 50,000 reagents; below is a random part of them. In the full data, about 4,000 (8%) got an active call. 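Mouse siRNA library applied to hamster cells; one well for each siRNA.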 Reagents against one gene are numbered here.

| Target gene | reagent no. | GFP, % of control | viability (ATP), % of control | outcome |
| --- | --- | --- | --- | --- |
| Tmem232 | 1 | 56.5 | 76.3 | inactive |
| Tmem232 | 2 | 73.4 | 64.8 | inactive |
| Tmem232 | 3 | 55.2 | 36.3 | inactive |
| Gabrp | 1 | 69.8 | 102 | inactive |
| Gabrp | 2 | 108 | 144 | inactive |
| Gabrp | 3 | 47.1 | 60 | inactive |
| Morf4l1 | 1 | 68.5 | 63.5 | inactive |
| Morf4l1 | 2 | 82 | 76.5 | inactive |
| Morf4l1 | 3 | 36.1 | 55.9 | inactive |
| Gpr6 | 1 | 112 | 116 | inactive |
| Gpr6 | 2 | 77.5 | 72.2 | inactive |
| Gpr6 | 3 | 70.8 | 68.3 | inactive |
| Snx9 | 1 | 75.9 | 106 | inactive |
| Snx9 | 2 | 68.6 | 70.4 | inactive |
| Nkapd1 | 1 | 66.7 | 48.8 | inactive |
| Nkapd1 | 2 | 99.1 | 78.5 | inactive |
| Nkapd1 | 3 | 90.9 | 99.7 | inactive |
| Lzts3 | 1 | 43 | 34.7 | inactive |
| Lzts3 | 2 | 45.4 | 76.2 | inactive |
| Lzts3 | 3 | 133 | 83.8 | active |
| Mogat2 | 1 | 28.9 | 25.6 | inactive |
| Mogat2 | 2 | 99.9 | 146 | inactive |
| Mogat2 | 3 | 101 | 113 | inactive |
| Cdh26 | 1 | 80.1 | 87 | inactive |
| Cdh26 | 2 | 53.8 | 90.6 | inactive |
| Cdh26 | 3 | 88.9 | 38.5 | inactive |
| Dcaf10 | 1 | 88.2 | 54.8 | inactive |
| Dcaf10 | 2 | 79.7 | 90.6 | inactive |
| Dcaf10 | 3 | 45.8 | 57.2 | inactive |
| Calr | 1 | 67.9 | 84.1 | inactive |
| Calr | 2 | 57.6 | 83.2 | inactive |
| Aqp3 | 1 | 100 | 102 | inactive |
| Aqp3 | 2 | 64.2 | 80 | inactive |
| Aqp3 | 3 | 60.4 | 81.8 | inactive |
| Gstm5 | 1 | 82 | 75.4 | inactive |
| Gstm5 | 2 | 61.8 | 104 | inactive |
| Gstm5 | 3 | 120 | 97.1 | active |
| Stk36 | 1 | 55.9 | 52.3 | inactive |
| Stk36 | 2 | 72.2 | 66.9 | inactive |
| Stk36 | 3 | 35.4 | 47.4 | inactive |
| Lypd8 | 1 | 29.4 | 67.2 | inactive |
| Lypd8 | 2 | 13.9 | 20.7 | inactive |
| Lypd8 | 3 | 64 | 77 | inactive |
| Ncald | 1 | 80.8 | 86.2 | inactive |
| Ncald | 2 | 61.8 | 60.2 | inactive |
| Or8b4 | 1 | 73.2 | 33.3 | inactive |
| Or8b4 | 2 | 39 | 70.6 | inactive |
| Or8b4 | 3 | 103 | 115 | inactive |
| Foxi1 | 1 | 82.2 | 87.9 | inactive |
| Foxi1 | 2 | 53.7 | 53.8 | inactive |
| Taf6l | 1 | 61.2 | 77.2 | inactive |
| Taf6l | 2 | 65 | 46.1 | inactive |
| Taf6l | 3 | 79 | 90.4 | inactive |
| Gm3579 | 1 | 69.2 | 91.9 | inactive |
| Gm3579 | 2 | 91.1 | 94.1 | inactive |
| Gm3579 | 3 | 39.1 | 36.7 | inactive |
| Riok2 | 1 | 46.1 | 52.3 | inactive |
| Igfl3 | 1 | 67.3 | 91 | inactive |
| Igfl3 | 2 | 89.2 | 83.8 | inactive |
| Igfl3 | 3 | 69.6 | 87 | inactive |
| Txndc11 | 1 | 43.4 | 109 | inactive |
| Txndc11 | 2 | 62.5 | 69.3 | inactive |
| Txndc11 | 3 | 56.4 | 61 | inactive |
| Stoml2 | 1 | 68.6 | 51.4 | inactive |
| Stoml2 | 2 | 90.2 | 93.3 | inactive |
| Stoml2 | 3 | 58.8 | 63.9 | inactive |
| Or2h1b | 1 | 85.7 | 78.1 | inactive |
| Or2h1b | 2 | 103 | 76 | inactive |
| Or2h1b | 3 | 80 | 94.1 | inactive |
| Mettl23 | 1 | 68.8 | 61.9 | inactive |
| Mettl23 | 2 | 87.5 | 73.8 | inactive |
| Mettl23 | 3 | 107 | 53.2 | inactive |
| Osbpl8 | 1 | 76.2 | 65.9 | inactive |
| Osbpl8 | 2 | 63.1 | 72.7 | inactive |
| Osbpl8 | 3 | 78.6 | 85.1 | inactive |
| Clec14a | 1 | 82.8 | 106 | inactive |
| Clec14a | 2 | 82.8 | 87.3 | inactive |
| Clec14a | 3 | 112 | 105 | inactive |
| H2-Q6 | 1 | 20.7 | 36.2 | inactive |
| H2-Q6 | 2 | 65.2 | 61.2 | inactive |
| H2-Q6 | 3 | 67.3 | 46.2 | inactive |
| Mmachc | 1 | 54.9 | 80.5 | inactive |
| Mmachc | 2 | 47 | 47.1 | inactive |
| Mmachc | 3 | 78.3 | 75.7 | inactive |
| Tmem38b | 1 | 94.5 | 83.4 | inactive |
| Tmem38b | 2 | 63.5 | 76.3 | inactive |
| Tmem38b | 3 | 88.9 | 84.3 | inactive |
| Boc | 1 | 79.8 | 71.8 | inactive |
| Boc | 2 | 123 | 74.3 | active |
| Boc | 3 | 90.4 | 66 | inactive |
| Trdv2-2 | 1 | 89.6 | 59.7 | inactive |
| Trdv2-2 | 2 | 46 | 69.5 | inactive |
| Trdv2-2 | 3 | 53.5 | 79 | inactive |
| Plod1 | 1 | 98.4 | 87.1 | inactive |
| Plod1 | 2 | 72.4 | 64.1 | inactive |
| Plod1 | 3 | 60.3 | 43.1 | inactive |
| Zfp775 | 1 | 62.1 | 60.7 | inactive |
| Zfp775 | 2 | 72.7 | 45 | inactive |
| Zfp775 | 3 | 101 | 86 | inactive |
| Slc19a2 | 1 | 118 | 110 | inactive |
| Slc19a2 | 2 | 68.5 | 64 | inactive |
| Slc19a2 | 3 | 88 | 102 | inactive |
| Lrrc15 | 1 | 131 | 94.5 | active |
| Lrrc15 | 2 | 45 | 63.1 | inactive |
| Lrrc15 | 3 | 74.4 | 67.9 | inactive |
| Rell2 | 1 | 119 | 45.6 | inactive |
| Rell2 | 2 | 126 | 64.8 | active |
| Rell2 | 3 | 115 | 82.2 | inactive |

Entries listed so far marked active (5):
| Target gene | reagent no. | GFP, % of control | viability (ATP), % of control | outcome |
| --- | --- | --- | --- | --- |
| Lzts3 | 3 | 133 | 83.8 | active |
| Gstm5 | 3 | 120 | 97.1 | active |
| Boc | 2 | 123 | 74.3 | active |
| Lrrc15 | 1 | 131 | 94.5 | active |
| Rell2 | 2 | 126 | 64.8 | active |
